In PMC11358264 one finds binding data, which are given here for 4 molecules.

Sequences of proteins named here, by UniProt entry; tags and fusion partners are left off.
UniProt Q9NZI8: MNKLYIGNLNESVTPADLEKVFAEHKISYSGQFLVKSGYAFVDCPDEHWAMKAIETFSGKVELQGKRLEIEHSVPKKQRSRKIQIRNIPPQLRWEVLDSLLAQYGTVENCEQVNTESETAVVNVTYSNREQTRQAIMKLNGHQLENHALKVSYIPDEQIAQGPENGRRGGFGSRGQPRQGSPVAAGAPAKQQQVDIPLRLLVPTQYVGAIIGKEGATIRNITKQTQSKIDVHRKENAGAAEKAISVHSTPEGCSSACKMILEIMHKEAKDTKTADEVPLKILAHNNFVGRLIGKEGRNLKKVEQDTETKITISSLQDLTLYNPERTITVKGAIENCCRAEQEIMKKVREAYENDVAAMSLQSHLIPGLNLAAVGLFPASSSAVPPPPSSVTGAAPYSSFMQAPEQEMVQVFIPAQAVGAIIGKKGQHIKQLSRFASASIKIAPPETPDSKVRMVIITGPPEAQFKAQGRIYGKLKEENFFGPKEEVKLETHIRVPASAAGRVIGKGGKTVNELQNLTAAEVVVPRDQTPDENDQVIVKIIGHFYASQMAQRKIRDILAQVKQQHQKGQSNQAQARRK
UniProt O00425: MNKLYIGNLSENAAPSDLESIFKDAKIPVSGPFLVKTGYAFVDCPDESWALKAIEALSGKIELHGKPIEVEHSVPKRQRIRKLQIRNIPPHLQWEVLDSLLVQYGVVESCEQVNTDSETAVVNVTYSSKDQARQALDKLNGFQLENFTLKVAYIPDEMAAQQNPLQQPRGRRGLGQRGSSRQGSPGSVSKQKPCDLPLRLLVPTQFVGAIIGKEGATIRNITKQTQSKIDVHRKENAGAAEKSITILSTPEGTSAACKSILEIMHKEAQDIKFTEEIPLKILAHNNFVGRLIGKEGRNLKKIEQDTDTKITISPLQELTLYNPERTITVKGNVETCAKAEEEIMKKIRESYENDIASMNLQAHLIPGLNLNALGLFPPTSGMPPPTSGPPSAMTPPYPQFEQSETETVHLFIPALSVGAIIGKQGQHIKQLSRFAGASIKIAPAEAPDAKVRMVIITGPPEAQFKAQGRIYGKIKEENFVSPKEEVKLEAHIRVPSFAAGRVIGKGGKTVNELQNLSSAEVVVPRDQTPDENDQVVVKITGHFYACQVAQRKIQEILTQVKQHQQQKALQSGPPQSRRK
UniProt Q9Y6M1: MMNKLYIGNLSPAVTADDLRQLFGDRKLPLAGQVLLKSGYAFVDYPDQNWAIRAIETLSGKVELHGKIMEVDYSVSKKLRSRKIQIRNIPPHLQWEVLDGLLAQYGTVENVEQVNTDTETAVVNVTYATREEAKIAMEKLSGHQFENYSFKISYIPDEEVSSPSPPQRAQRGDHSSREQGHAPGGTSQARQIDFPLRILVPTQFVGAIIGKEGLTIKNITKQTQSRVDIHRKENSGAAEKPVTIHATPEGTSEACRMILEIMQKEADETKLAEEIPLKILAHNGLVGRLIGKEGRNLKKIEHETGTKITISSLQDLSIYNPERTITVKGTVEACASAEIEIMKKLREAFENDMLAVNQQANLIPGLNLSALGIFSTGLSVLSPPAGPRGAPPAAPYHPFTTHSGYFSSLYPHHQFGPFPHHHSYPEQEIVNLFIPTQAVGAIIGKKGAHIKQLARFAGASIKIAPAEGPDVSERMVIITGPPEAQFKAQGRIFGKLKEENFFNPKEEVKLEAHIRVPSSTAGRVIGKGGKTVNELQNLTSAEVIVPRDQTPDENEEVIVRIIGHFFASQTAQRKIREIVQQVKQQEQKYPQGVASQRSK
UniProt Q13868: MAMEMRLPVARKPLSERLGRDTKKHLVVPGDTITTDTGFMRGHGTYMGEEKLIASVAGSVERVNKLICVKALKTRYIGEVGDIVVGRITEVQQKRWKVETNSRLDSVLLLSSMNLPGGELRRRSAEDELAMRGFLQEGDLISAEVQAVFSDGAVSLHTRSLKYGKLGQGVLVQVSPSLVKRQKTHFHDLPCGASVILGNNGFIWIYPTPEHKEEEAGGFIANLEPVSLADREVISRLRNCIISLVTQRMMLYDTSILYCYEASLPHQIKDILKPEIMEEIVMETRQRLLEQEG
UniProt Q9NQT5: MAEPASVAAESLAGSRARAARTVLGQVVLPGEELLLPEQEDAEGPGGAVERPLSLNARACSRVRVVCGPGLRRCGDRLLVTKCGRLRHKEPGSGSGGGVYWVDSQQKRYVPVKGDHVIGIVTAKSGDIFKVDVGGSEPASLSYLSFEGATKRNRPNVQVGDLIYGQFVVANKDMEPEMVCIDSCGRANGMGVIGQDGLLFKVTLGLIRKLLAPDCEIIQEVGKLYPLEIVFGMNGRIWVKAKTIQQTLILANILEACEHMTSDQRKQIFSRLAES
UniProt Q15024: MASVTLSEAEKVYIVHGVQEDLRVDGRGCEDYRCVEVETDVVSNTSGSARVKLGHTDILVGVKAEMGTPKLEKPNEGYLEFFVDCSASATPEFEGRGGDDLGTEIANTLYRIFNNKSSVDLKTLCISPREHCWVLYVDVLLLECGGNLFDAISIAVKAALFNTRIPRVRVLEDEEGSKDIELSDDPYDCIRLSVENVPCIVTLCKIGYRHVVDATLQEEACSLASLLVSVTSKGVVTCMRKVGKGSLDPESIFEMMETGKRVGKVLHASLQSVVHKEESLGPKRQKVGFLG

No constants are given. Whether binding was seen depends on the method and setting. Binding seen in cells or lysates may run through a third protein. Some binding calls cover weakened binding; strength is not graded here.

What all share (assay): co-IP; HepG2 lysate (150 mM KCl, 10 mM HEPES pH 7.6, 2 mM EDTA, 0.5% NP-40, 0.5 mM DTT, RNase inhibitor) incubated with antibodies against IGF2BP1, IGF2BP2 or IGF2BP3 for 2 h at 4 °C, Protein A beads, washed four times with NT2 buffer (200 mM NaCl); western blot of the partners; rabbit IgG as negative control
(Immunoblotting shows a protein as a band on a membrane.)

The target in experiment [1] is IGF2BP1 (human (endogenous in HepG2)) (UniProt Q9NZI8).
For experiment [2], the target named is IGF2BP3 (human (endogenous in HepG2)) (UniProt O00425).
The target of experiment [3] is IGF2BP2 (human (endogenous in HepG2)) (UniProt Q9Y6M1).

In the case of EXOSC2 (from UniProt Q13868 1-293), the binding entry in experiment [1], in experiment [2] and in experiment [3] was “binds” in each case.
On to EXOSC3 (from UniProt Q9NQT5 1-275), for which the binding result in experiment [1] and in experiment [2] was “binds” each time.
With EXOSC7 (from UniProt Q15024 1-291), the binding result in experiment [1] and in experiment [2] was “binds” throughout.

B1: XRN2 (protein, UniProt Q9H0D6 1-950)
chain: MGVPAFFRWLSRKYPSIIVNCVEEKPKECNGVKIPVDASKPNPNDVEFDNLYLDMNGIIHPCTHPEDKPAPKNEDEMMVAIFEYIDRLFSIVRPRRLLYMAIDGVAPRAKMNQQRSRRFRASKEGMEAAVEKQRVREEILAKGGFLPPEEIKERFDSNCITPGTEFMDNLAKCLRYYIADRLNNDPGWKNLTVILSDASAPGEGEHKIMDYIRRQRAQPNHDPNTHHCLCGADADLIMLGLATHEPNFTIIREEFKPNKPKPCGLCNQFGHEVKDCEGLPREKKGKHDELADSLPCAEGEFIFLRLNVLREYLERELTMASLPFTFDVERSIDDWVFMCFFVGNDFLPHLPSLEIRENAIDRLVNIYKNVVHKTGGYLTESGYVNLQRVQMIMLAVGEVEDSIFKKRKDDEDSFRRRQKEKRKRMKRDQPAFTPSGILTPHALGSRNSPGSQVASNPRQAAYEMRMQNNSSPSISPNTSFTSDGSPSPLGGIKRKAEDSDSEPEPEDNVRLWEAGWKQRYYKNKFDVDAADEKFRRKVVQSYVEGLCWVLRYYYQGCASWKWYYPFHYAPFASDFEGIADMPSDFEKGTKPFKPLEQLMGVFPAASGNFLPPSWRKLMSDPDSSIIDFYPEDFAIDLNGKKYAWQGVALLPFVDERRLRAALEEVYPDLTPEETRRNSLGGDVLFVGKHHPLHDFILELYQTGSTEPVEVPPELCHGIQGKFSLDEEAILPDQIVCSPVPMLRDLTQNTVVSINFKDPQFAEDYIFKAVMLPGARKPAAVLKPSDWEKSSNGRQWKPQLGFNRDRRPVHLDQAAFRTLGHVMPRGSGTGIYSNAAPPPVTYQGNLYRPLLRGQAQIPKLMSNMRPQDSWRGPPPLFQQQRFDRGVGAEPLLPWNRMLQTQNAAFQPNQYQMLAGPGGYPPRRDDRGGRQGYPREGRKYPLPPPSGRYNWN
As for B1, the binding result in experiment [1], in experiment [2] and in experiment [3] was “binds” in each case.
